Measurements from “University of Dundee, Small-Polar-MMV Screening Library” (2021), ChEMBL document CHEMBL3988442.

Amino acid sequences for entries named in this document (tags omitted). Residues count along the entry.
UniProt P9WNZ1, whole entry: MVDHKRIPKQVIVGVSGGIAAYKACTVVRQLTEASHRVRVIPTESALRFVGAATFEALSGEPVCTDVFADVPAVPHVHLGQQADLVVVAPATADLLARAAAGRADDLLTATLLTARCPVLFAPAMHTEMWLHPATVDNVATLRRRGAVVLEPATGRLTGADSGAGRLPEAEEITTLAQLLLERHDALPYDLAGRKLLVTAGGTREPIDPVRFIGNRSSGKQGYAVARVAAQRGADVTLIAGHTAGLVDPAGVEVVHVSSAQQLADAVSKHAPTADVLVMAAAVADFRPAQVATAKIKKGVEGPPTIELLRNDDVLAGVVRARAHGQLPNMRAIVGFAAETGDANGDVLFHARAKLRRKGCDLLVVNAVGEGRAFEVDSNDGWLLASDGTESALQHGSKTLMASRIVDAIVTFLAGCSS
UniProt Q8IDJ8, 1-583: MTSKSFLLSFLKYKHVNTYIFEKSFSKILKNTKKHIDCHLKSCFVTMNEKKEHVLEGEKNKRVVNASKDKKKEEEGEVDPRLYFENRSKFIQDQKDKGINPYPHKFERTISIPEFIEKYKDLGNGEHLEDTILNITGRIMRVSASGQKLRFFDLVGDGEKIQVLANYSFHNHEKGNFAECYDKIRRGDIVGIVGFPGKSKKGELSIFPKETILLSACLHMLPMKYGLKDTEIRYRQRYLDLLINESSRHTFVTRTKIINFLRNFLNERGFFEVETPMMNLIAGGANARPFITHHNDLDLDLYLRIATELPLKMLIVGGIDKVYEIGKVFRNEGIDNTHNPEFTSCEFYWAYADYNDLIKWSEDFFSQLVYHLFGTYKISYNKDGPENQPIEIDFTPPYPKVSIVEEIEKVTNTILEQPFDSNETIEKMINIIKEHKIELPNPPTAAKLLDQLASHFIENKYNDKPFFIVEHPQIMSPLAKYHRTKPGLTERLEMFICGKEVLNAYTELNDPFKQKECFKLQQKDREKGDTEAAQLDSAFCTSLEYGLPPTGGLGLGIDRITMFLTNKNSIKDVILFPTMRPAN
UniProt P9WFT3, whole entry: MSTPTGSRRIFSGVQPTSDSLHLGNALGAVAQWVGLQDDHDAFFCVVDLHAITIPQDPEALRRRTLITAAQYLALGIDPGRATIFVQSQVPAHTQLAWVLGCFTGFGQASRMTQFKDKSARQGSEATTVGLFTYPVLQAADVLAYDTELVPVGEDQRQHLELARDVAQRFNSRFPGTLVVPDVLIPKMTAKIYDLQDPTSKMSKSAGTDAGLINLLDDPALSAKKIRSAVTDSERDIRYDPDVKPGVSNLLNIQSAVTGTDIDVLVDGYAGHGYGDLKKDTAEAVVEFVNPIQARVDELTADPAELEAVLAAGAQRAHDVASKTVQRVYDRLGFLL
UniProt I6X8D2, whole entry: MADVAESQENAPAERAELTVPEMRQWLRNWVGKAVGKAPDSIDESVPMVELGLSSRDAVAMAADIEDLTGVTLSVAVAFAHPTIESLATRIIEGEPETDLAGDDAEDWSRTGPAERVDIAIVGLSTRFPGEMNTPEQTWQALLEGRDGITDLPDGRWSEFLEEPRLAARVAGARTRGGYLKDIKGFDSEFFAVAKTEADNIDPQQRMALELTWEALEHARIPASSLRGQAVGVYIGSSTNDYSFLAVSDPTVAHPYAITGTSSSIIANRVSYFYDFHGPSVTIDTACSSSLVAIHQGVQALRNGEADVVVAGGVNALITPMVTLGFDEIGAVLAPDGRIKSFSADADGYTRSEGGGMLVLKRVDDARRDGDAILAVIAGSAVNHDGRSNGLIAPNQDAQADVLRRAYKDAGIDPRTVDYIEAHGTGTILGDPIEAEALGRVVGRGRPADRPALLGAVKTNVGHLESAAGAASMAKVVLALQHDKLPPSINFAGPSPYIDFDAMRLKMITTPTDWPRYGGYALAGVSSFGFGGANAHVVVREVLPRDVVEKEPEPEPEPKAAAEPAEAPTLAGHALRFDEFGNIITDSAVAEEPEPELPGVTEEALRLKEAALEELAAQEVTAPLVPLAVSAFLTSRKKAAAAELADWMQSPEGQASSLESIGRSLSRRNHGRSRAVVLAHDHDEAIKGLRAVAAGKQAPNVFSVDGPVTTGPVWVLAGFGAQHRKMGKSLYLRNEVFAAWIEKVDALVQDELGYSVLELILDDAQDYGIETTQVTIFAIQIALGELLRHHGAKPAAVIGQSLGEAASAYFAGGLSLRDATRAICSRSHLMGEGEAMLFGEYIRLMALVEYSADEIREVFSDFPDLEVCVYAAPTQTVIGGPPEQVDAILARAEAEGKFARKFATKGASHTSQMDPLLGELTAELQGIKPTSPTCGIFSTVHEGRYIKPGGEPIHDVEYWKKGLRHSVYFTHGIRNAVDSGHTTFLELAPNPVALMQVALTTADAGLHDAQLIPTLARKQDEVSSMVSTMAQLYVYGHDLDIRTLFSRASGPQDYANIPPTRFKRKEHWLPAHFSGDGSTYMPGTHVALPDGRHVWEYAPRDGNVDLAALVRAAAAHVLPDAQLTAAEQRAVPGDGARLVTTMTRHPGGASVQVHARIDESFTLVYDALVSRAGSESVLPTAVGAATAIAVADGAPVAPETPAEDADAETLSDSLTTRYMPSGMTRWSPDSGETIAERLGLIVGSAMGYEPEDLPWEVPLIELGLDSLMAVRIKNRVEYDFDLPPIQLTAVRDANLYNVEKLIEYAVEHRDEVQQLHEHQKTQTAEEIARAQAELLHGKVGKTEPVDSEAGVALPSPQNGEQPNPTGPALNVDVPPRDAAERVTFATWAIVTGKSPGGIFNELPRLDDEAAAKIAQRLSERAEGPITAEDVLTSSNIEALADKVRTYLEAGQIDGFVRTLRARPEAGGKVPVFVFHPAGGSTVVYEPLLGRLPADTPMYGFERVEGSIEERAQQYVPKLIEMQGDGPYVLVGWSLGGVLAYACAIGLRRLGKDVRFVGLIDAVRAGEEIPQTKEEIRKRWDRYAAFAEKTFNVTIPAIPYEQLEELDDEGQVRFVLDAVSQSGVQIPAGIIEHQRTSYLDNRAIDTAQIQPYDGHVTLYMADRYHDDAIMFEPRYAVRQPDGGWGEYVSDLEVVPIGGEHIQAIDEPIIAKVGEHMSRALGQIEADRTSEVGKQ

The filed quantity is “Percent Effect” (%).
The record does not define 0% and 100%; most values in the screen are far below 50% and negative numbers occur (in some assays of this library far below -100).
This is an unselected part of the compounds tested.
Two or more numbers in one place are separate tests of the same structure; such repeats can differ widely.
A dash means the value is not listed here; it may have been measured.

A: 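Enzyme assay of CoaBC with a phosphate dye (Biomol Green) read at 650 nm. Target: Coenzyme A biosynthesis protein CoaBC, Mycobacterium tuberculosis (UniProt P9WNZ1). Compounds at 30 µM. Direction is inferred from only a few compounds that gave an IC50; most scored high, so higher reads as stronger inhibition. Most strong results did not repeat in a second test. Of about 67,000 compounds tested this way, about 40 (0.06%) reached 50% or more in at least one test.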
B: 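Enzyme assay of the cytosolic lysyl-tRNA synthetase in 384-well plates, read by luminescence. Target: Lysine-tRNA ligase, Plasmodium falciparum 3D7 (UniProt Q8IDJ8). Concentration: 30 µM. Higher reads as stronger inhibition, judged from the few compounds that gave an IC50. Size under these conditions: about 69,000 compounds, about 49 of them at 50% or above in at least one test.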
C: 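Assay of Toxoplasma gondii numbers, read through their beta-galactosidase reporter with a colour substrate. Tested at 10 µM. Higher reads as fewer parasites (inferred from which compounds were picked for retests). Size under these conditions: about 67,000 compounds, about 260 of them at 50% or above in at least one test.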
D: 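Tryptophan-tRNA ligase, Mycobacterium tuberculosis (UniProt P9WFT3). Enzyme assay of tryptophanyl-tRNA synthetase; the read-out is not stated. Concentration: 10 µM. Direction is not recorded; retested compounds ran higher, which suggests that high means inhibition. Of about 65,000 compounds tested this way, about 64 (0.098%) reached 50% or more in at least one test.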
E: 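Polyketide synthase Pks13, Mycobacterium tuberculosis (UniProt I6X8D2). Enzyme assay of the thioesterase domain of polyketide synthase 13; the read-out is not stated. Tested at 30 µM. The record gives no direction; the compounds picked for IC50 retests had high values, so higher reads as stronger inhibition. Of about 67,000 compounds tested this way, about 300 (0.46%) reached 50% or more in at least one test.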

SMILES,A,B,C,D,E
COc1ccnc(N2CCN(CC(=O)N3CCOCC3)CC2)n1,3.84%,0.07181%,-6.968%,-0.4873%,-8.914%
Cc1nn(C)c(N(C)C)c1CNCCCN(C(C)C)S(C)(=O)=O,1.842%,1.225%,-19.64%,0.1337%,-35.21%
Cn1cc(CN2CC[C@@H]3[C@@H](CCC(=O)N3CCc3ccccc3)C2)cn1,1.818%,2.766%,-,-1.212%,-15.2%
COC1CCN(CC(=O)NCc2ccc(OCC(N)=O)cc2)CC1,4.907%,4.31%,10.28%,-2.3%,20.46%
Cc1cc(CCC(=O)N2CCC(O)CC2)ccc1Br,3.187%,6.379%,-10.37%,-5.253%,-14.61%
O=C(c1ccc(-c2ccoc2)nc1)N1CCCN(C2CCCCC2)CC1,5.499%,13.13%,12.2%,1.25%,-
CN(C)Cc1ccnc(C2CN(CCc3ccccc3)CCO2)n1 (configuration not stated),-1.453%,-0.92%,-7.527%,-,-25.22%
Cc1noc(C2CCCN(C(=O)c3cncc(Br)c3)C2)n1 (configuration not stated),9.287%,1.7%,3.822%,-0.2441%,-12.05%
O=C(Cc1ccccc1Cl)Nc1ccn(CCN2CCOCC2)n1,-5.61%,6.715%,22.02%,-0.9029%,-5.934%
[H][C@@]12CS(=O)(=O)C[C@]1([H])N(C(=O)c1snnc1C)CCN2C(C)=O,-,-,-4.337%,-,-
Cn1cncc1-c1nnc([C@H]2CCN(Cc3ccc(CO)o3)C2)o1,5.96%,-0.02522%,-9.724%,-1.29%,2.552%
CC1CN(C)CCN1C(=O)c1cccn1Cc1cccs1 (configuration not stated),-1.946%,-1.656%,-46.02%,1.38%,-
CCCn1ccnc1-c1nccn1CCN(C)C,-0.1972%,1.542%,1.699%,2.862%,-20.71%
CCOCC1CN(S(C)(=O)=O)Cc2ncn(CC3CC3)c21 (configuration not stated),-7.489%,-0.7892%,2.605%,0.8382%,-12.07%
C[C@@H]1CCC[C@H](C)N1CC(=O)N1CCc2[nH]c(-c3ccccc3)nc2C1,5.302%,2.821%,-7.101%,1.952%,3.594%
CC(=O)N[C@@H]1CN(C(=O)Cc2coc3cc(C)ccc23)C[C@H]1O,2.331%,0.8297%,15.85%,-9.407%,6.699%
CC(C)N1CCO[C@H]2CN(C(=O)c3ccoc3)C[C@H]21,2.188%,10.4%,-,1.055%,0.3322%
O=C1[C@H]2CN(S(=O)(=O)c3ccccc3)C[C@H]2CN1Cc1cccnc1,1.186%,4.448%,-,-0.5089%,-12.03%
CC(C)Cc1nc(CN(C)CCOc2ccccc2F)no1,-4.481%,-5.064%,0.5288%,-0.6938%,20.01%
Cc1ccc(NC2(C(=O)NCc3c(C)n[nH]c3C)CCCC2)cc1,5.353%,0.9056%,-10.01%,-1.273%,-14.09%
Cc1nc(C)c(CC(=O)NCc2ccccc2F)s1,8.668%,7.752%,27.8%,0.5319%,-30.29%
NCC(c1cccnc1)N1CCOCC1 (configuration not stated),1.314%,0.08537%,-18.45%,-4.838%,9.489%
O=C(CCc1ccsc1)N(Cc1ccccn1)C1CC1,-12.1%,5.664%,-13%,-0.1039%,-18.99%
O=C(CCO)N1CC[C@@H]2CN(C(=O)c3ccco3)CCO[C@@H]2C1,2.25%,1.142%,-,0.7819%,-2.938%
COc1ccc2c(c1)NC(C1CCN(C(=O)C3CC3)CC1)NS2(=O)=O (configuration not stated),2.822%,0.515%,5%,-7.381%,10.41%
Cc1cnn(Cc2cccc(OCC(N)=O)c2)c1,-2.42%,5.613%,8.032%,-0.3068%,-14.61%
CC(NC(=O)Nc1cccnc1N1CCCC1)c1ccncc1 (configuration not stated),-6.403%,0.487%,-2.746%,-4.802%,0.2044%
c1ccc(CO[C@@H]2CC[C@H]3[C@H]2OCCN3Cc2ccsc2)nc1,7.006%,4.51%,-,3.099%,-6.264%
CCOc1ccc(Cl)c(C(=O)N2CCN(CC(C)(C)O)CC2)n1,-2.968%,-2.108%,20.52%,-3.018%,-16.15%
CS(=O)(=O)Nc1ccn(Cc2ccc(F)cc2Cl)n1,2.551%,1.292%,-4.119%,3.947%,0.2586%
c1csc(CN2CCC3(CCCN(c4nncs4)C3)C2)n1 (configuration not stated),-5.607%,2.263%,-,-3.314%,-12.84%
Cc1ccnn1CCC(=O)N1CCN(C2CCc3ccccc3C2)CC1 (configuration not stated),13.08%,7.527%,-2.705%,-2.464%,-22.7%
[H][C@@]12CS(=O)(=O)C[C@]1([H])N(C(=O)c1ccc3c(c1)NC(=O)CN3)CCN2CC,-,-,0.6805%,-,-
CCOc1ccccc1C(=O)N1CCCC1c1ncc2c(n1)CCNC2.Cl (configuration not stated),-,-,1.975%,-,-
COCC(=O)N1CC2=CC(C)(C)COc3ccc(OC)c(c32)C1,-3.39%,2.69%,-3.402%,-,-35.92%
CCOc1ncnc2c1CCN(Cc1csc(C)n1)CC2.O=C(O)C(F)(F)F,-,-,5.854%,-,-
O=C(NC(C1CC1)C1CC1)c1cccc[n+]1[O-],7.826%,-4.578%,0.5618%,-3.179%,-32.38%
N#Cc1ccc(CNc2cccc(C(=O)N3CCOCC3)c2)cc1,2.538%,6.965%,18.3%,-0.1937%,-19.99%
O=C(C1CC=CC1)N1Cc2nccn2CC(CN2CCCC2)C1 (configuration not stated),1.269%,-1.207%,-3.3%,-0.9053%,-38.44%
Cc1cncc(C(=O)N2CCNCC2C(=O)Nc2ccc(C)nc2)c1 (configuration not stated),4.701%,2.047%,18.59%,-4.64%,-40.72%
Fc1cccc(N2CCCC3(CN(Cc4ccccn4)CCO3)C2)c1 (configuration not stated),-6.977%,4.821%,-,-1.198%,-43.03%
CS(=O)(=O)N1CCOCC2(CCN(c3ccccn3)C2)C1 (configuration not stated),7.519%,0.6659%,-,0.9682%,5.325%
O=C(CN1CCCNC1=O)Nc1ccccc1C(=O)C1CCCC1,8.765%,4.824%,-3.861%,-1.242%,-3.234%
CCCc1nnnn1CC(=O)NCc1cccc(C)c1,-2.913%,3.093%,-4.348%,6.623%,-0.05751%
Cc1ocnc1C(=O)N1CC[C@@H](O)[C@@H](O)[C@H](N2CCC(F)(F)CC2)C1,2.906%,3.465%,7.527%,-,-3.839%
COC1(CNC(=O)CCCc2ccccc2)CCSC1 (configuration not stated),-3.053%,-0.7501%,18.87%,-4.641%,-10.67%
N#CC1(C(=O)N2CCOC(c3ccc(Cl)cc3)C2)CCCC1 (configuration not stated),-17.19%,0.1292%,27.97%,-0.0809%,15.06%
CCN(CCO)Cc1cn(-c2cccc(F)c2)nc1-c1ccc(C)o1,-9.355%,6.772%,-2.497%,3.565%,-24.55%
COCc1nnn2c1CN(C(=O)c1ccnnc1)CCC2,9.167%,-0.1469%,-9.278%,11.78%,28.73%
O=C([C@@H]1C[C@@H]2CCN(c3cccc(F)c3)C[C@H]2O1)N1CCCC1,-8.015%,2.17%,-,10.73%,-58.14%
CC(NC(=O)CN(C)S(C)(=O)=O)c1nnc2n1CCCCC2 (configuration not stated),0.7905%,-12.93%,1.224%,-5.943%,76.16%
CC(c1nnc(-c2cccs2)o1)N1CCc2cncnc2C1 (configuration not stated),-11.16%,4.305%,6.426%,-0.3096%,-7.929%
CNC(=O)[C@H]1CC[C@@H]2[C@@H](CCN2C(=O)N(C)C)O1,-,4.308%,-,-2.265%,-28.22%
Cc1cc(C)nc(N2CCCC(C)(c3[nH]ncc3C(=O)N(C)C)C2)n1 (configuration not stated),6.78%,-0.2305%,17.14%,4.373%,1.032%
CCn1ncnc1C(C)NC(=O)CC1CCN(C(C)C)CC1 (configuration not stated),7.407% & 25.7%,-4.28%,-8.394%,14.36%,2.852%
Cc1cc(C)n(CC2CCCN2Cc2ncc(C(C)(C)C)o2)n1 (configuration not stated),2.968%,0.1954%,2.467%,-1.655%,-4.399%
Cc1cc(=O)n(CCNC(=O)c2ccccc2Cl)cn1,-3.38%,6.446%,3.79%,0.2681%,-17.53%
COCCCNC(=O)Cn1c(C)cc(=O)n2nc(-c3cccs3)nc12,-0.2532%,1.375%,13.13%,0.4772%,22.93%